Experimental findings from paper PMC11053110 are described below.

By UniProt entry, the sequences of proteins in these tests, tags left out.
UniProt Q9GZT9: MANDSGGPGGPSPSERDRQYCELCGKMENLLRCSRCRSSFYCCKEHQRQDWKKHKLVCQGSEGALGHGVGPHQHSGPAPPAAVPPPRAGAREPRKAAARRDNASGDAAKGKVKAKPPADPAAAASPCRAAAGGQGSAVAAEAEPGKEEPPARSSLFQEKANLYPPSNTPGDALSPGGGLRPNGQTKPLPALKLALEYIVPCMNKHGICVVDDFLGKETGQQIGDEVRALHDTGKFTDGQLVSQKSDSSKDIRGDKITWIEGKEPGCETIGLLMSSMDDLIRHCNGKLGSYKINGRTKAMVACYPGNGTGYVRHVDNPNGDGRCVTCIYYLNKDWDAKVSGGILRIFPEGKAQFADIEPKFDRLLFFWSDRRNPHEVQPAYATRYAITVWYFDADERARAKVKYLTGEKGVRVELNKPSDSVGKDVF
UniProt Q9H6Z9: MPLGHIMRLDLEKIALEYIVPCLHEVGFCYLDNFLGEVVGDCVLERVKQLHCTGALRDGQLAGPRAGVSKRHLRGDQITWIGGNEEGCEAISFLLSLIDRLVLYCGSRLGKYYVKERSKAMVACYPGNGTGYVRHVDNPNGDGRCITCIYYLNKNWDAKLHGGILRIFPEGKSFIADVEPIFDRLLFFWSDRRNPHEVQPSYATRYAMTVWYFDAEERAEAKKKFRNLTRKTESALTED
UniProt Q96KS0: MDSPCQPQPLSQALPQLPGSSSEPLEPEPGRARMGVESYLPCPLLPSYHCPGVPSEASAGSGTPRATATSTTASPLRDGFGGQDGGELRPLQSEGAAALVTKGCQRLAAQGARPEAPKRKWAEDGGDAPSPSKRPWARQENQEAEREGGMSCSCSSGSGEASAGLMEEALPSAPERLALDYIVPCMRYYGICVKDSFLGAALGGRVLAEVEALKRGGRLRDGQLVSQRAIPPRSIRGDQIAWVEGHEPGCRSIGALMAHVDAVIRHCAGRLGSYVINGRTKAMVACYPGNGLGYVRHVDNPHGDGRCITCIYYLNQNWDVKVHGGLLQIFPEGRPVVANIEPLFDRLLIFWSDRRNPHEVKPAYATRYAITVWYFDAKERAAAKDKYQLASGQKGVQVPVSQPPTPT

Results are given in words; binding and its absence hold for the method and conditions named. Binding seen in cells or lysates may run through a third protein. Some results given as binding are weak or reduced against the parent protein; the word gives no strength. For part of these data: Sequences can lack the tags named with a protein.

The target in assay [1] is T1, Flag-IRF3 (WT: full length) (human) (UniProt Q14653).
T1 sequence: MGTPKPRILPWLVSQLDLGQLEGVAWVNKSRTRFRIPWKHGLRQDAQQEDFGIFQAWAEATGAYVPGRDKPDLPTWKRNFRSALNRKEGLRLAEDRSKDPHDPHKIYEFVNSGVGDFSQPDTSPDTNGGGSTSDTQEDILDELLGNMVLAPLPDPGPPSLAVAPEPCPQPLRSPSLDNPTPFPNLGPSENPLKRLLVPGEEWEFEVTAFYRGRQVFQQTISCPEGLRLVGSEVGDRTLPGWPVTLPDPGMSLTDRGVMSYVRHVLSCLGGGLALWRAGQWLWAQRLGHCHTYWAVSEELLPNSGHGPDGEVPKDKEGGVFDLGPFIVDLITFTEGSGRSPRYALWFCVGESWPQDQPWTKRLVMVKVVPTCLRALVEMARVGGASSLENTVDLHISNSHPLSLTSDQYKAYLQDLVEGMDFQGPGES
The experiment in a line: co-IP.

A further assay deals with T2, Myc-IRF3 (human) (UniProt Q14653).
T2 sequence: T1 sequence
Briefly: co-IP.

Assay [2] deals with T3, endogenous IRF3 (human (endogenous in H1299 and THP-1)) (UniProt Q14653).
T3 sequence: T1 sequence
Briefly: proximity ligation.

The next assay deals with HA-EGLN1 (human) (UniProt Q9GZT9). Briefly: co-IP.
Assay [3] has as its target Flag-EGLN1 (WT: full length) (human) (UniProt Q9GZT9). Briefly: co-IP.
Assay [4] deals with ectopically expressed EGLN1 (Supplementary Fig. 9c-e) (human) (UniProt Q9GZT9). Briefly: co-IP.
The target of assay [5] is ectopically expressed EGLN3 (UniProt Q9H6Z9). Briefly: co-IP.
Assay [6] has as its target ectopically expressed EGLN2 (UniProt Q96KS0). The experiment in a line: co-IP.
For assay [7], the target named is endogenous EGLN1 (human (endogenous in H1299)) (UniProt Q9GZT9). Briefly: co-IP.

“HA-EGLN1 (from UniProt Q9GZT9 1-426) (enzyme)”: the binding entry (in assay [1]; in the assay with Myc-IRF3 (human)) was “binds” throughout. For the substance “HA-EGLN1 (in H1299 cells) (from UniProt Q9GZT9 1-426) (enzyme)”, the binding result in [2] was “binds”. Myc-IRF3 (from UniProt Q14653 1-427): the binding entry (with HA-EGLN1 (human); in [3]) was “binds” throughout. As for “ectopically expressed IRF3 (Supplementary Fig. 9c-e) (from UniProt Q14653 1-427)”, the binding result was “binds” in assay [4], “no binding” in [5] and “no binding” in assay [6]. As for “endogenous IRF3 (from UniProt Q14653 1-427)”, in assay [7], the binding entry is “binds”.
